± gives the standard deviation of the averaged measurements. The list shows a part of the results. The list holds hits alone, and they repeat only in part.
Legend:
Assay in all cases: PRISMA enrichment of interactor (LFQ) in peptide spot vs all other peptide spots (log2 fold change); higher = stronger / more specific binding of the interactor to the peptide
ABCE1, P61221 = molecular target: ABCE1, P61221
Method: (§1)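 PRISMA: 15-aa overlapping tiles (offset 8 aa) of 60 microproteins, plus SOS1/GLUT1 control peptides, were spot-synthesized on cellulose membranes in triplicate. Membranes were incubated with benzonase-treated HEK293T lysate, and bound proteins were identified by LC-MS/MS with LFQ. Enrichment is the log2 fold change of each protein in one spot versus all other spots. Only interactors passing the significance cutoff are listed.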

By UniProt entry, the sequences of proteins in these tests, tags left out.
AP2A2, O94973, UniProt O94973, whole entry: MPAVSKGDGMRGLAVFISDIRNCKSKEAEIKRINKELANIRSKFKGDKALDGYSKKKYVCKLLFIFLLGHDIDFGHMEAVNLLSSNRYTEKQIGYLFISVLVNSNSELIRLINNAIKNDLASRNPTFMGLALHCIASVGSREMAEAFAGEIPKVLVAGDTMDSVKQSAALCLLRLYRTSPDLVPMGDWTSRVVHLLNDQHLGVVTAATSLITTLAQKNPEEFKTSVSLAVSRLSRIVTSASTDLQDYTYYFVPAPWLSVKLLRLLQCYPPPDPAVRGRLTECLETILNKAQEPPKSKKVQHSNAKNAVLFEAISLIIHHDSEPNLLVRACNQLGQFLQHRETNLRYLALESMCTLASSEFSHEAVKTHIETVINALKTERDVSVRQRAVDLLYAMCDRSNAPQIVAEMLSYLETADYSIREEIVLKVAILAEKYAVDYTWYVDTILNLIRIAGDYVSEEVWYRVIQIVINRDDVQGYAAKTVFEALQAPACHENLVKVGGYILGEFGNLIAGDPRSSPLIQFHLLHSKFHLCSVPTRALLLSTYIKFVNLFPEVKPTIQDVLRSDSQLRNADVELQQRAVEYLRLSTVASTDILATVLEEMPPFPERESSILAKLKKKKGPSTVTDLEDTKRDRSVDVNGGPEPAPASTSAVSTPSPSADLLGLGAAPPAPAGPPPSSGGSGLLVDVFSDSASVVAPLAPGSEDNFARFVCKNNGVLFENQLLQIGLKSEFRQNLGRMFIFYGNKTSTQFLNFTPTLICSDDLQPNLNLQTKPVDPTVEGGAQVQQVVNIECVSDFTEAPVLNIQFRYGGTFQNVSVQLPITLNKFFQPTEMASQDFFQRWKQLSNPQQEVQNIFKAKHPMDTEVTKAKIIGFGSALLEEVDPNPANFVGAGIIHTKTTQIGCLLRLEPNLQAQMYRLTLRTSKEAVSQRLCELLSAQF
CRIPT, Q9P021, UniProt Q9P021, whole entry: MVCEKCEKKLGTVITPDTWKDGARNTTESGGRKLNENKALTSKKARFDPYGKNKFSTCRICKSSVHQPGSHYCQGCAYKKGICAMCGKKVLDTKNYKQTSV
EEF1A2, Q05639, UniProt Q05639, whole entry: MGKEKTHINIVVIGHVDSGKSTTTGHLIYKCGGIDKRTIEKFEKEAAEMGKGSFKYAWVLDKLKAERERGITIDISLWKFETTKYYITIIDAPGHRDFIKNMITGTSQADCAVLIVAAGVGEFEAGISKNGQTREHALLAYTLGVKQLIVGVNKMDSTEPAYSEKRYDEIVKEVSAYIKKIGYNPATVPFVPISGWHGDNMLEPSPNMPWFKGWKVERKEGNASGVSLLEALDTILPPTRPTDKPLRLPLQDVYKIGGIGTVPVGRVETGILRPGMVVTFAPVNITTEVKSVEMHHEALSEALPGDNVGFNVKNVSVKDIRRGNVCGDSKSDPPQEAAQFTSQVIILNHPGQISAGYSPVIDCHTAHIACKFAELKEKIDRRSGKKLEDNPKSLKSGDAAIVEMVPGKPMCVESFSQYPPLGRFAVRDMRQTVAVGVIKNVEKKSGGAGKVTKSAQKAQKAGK
EIF1, P41567, UniProt P41567, whole entry: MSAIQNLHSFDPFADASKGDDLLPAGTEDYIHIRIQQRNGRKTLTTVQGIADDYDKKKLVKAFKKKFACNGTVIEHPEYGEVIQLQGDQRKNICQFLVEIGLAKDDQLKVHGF
H1F0, P07305, UniProt P07305, whole entry: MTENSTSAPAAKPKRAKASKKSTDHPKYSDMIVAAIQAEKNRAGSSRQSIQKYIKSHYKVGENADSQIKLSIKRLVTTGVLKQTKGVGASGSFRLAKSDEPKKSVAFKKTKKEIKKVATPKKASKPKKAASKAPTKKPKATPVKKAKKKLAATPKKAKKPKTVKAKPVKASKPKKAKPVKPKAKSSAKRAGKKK
HIST1H1C, P16403, UniProt P16403, whole entry: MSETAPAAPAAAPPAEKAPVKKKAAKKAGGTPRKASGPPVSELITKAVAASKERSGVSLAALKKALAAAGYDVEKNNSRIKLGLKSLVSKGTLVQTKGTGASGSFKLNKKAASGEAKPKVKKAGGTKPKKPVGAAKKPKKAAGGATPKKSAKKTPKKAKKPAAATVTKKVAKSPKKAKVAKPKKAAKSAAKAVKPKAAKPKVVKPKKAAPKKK
HIST1H1D, P16402, UniProt P16402, whole entry: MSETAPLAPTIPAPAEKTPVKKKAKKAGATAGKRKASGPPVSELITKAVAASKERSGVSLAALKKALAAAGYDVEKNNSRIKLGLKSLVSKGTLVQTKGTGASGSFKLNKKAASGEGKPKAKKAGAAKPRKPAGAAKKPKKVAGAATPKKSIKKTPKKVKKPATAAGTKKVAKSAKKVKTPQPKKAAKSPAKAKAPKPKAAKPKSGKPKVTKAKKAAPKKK
KHDRBS1, Q07666, UniProt Q07666, whole entry: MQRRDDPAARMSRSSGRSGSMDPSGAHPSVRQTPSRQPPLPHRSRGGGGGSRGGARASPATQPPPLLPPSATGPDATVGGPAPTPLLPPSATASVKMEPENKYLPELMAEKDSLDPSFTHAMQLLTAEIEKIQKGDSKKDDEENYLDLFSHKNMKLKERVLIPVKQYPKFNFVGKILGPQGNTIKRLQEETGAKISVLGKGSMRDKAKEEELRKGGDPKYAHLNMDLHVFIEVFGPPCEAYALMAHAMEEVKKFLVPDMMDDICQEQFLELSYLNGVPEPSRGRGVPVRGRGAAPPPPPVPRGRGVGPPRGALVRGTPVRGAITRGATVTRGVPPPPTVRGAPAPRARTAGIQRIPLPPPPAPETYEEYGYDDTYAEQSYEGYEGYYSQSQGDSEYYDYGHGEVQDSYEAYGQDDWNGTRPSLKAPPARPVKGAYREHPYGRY
MORF4L2, Q15014, UniProt Q15014, whole entry: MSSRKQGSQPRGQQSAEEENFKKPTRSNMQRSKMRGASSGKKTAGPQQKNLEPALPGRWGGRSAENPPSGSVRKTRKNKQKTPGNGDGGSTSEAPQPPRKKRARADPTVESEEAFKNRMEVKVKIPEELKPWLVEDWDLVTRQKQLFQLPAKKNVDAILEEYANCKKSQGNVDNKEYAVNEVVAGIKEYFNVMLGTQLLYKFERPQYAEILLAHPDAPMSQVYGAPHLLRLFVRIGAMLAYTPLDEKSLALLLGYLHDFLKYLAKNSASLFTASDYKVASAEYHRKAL
MPG, P29372, UniProt P29372, whole entry: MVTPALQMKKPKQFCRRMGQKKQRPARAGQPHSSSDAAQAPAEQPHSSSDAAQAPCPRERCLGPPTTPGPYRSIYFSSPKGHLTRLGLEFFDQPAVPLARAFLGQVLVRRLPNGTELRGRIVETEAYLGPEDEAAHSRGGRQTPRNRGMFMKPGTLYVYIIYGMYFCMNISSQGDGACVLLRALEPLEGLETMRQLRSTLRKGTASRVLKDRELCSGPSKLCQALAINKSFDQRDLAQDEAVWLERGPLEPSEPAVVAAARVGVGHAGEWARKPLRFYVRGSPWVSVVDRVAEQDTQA

ACOT13, Q9NPJ3 = molecular target: ACOT13, Q9NPJ3
Method: as §1

ALYREF, Q86V81 = molecular target: ALYREF, Q86V81
Method: as §1

AP2A2, O94973 = molecular target: AP2A2, O94973
Method: as §1

AP3M1, Q9Y2T2 = molecular target: AP3M1, Q9Y2T2
Method: as §1

BCKDK, O14874 = molecular target: BCKDK, O14874
Method: as §1

C11orf98, E9PRG8 = molecular target: C11orf98, E9PRG8
Method: as §1

C19orf53, Q9UNZ5 = molecular target: C19orf53, Q9UNZ5
Method: as §1

C8orf33, Q9H7E9 = molecular target: C8orf33, Q9H7E9
Method: as §1

CCDC137, Q6PK04 = molecular target: CCDC137, Q6PK04
Method: as §1

CCDC59, Q9P031 = molecular target: CCDC59, Q9P031
Method: as §1

CFAP20, Q9Y6A4 = molecular target: CFAP20, Q9Y6A4
Method: as §1

CHID1, Q9BWS9 = molecular target: CHID1, Q9BWS9
Method: as §1

CHTOP, Q9Y3Y2 = molecular target: CHTOP, Q9Y3Y2
Method: as §1

COA7, Q96BR5 = molecular target: COA7, Q96BR5
Method: as §1

CRIPT, Q9P021 = molecular target: CRIPT, Q9P021
Method: as §1

CSNK1A1, P48729 = molecular target: CSNK1A1, P48729
Method: as §1

CSNK1E, P49674 = molecular target: CSNK1E, P49674
Method: as §1

CXorf56, Q9H5V9 = molecular target: CXorf56, Q9H5V9
Method: as §1

DARS2, Q6PI48 = molecular target: DARS2, Q6PI48
Method: as §1

DDX47, Q9H0S4 = molecular target: DDX47, Q9H0S4
Method: as §1

DDX49, Q9Y6V7 = molecular target: DDX49, Q9Y6V7
Method: as §1

DDX6, P26196 = molecular target: DDX6, P26196
Method: as §1

DECR1, Q16698 = molecular target: DECR1, Q16698
Method: as §1

ECHS1, P30084 = molecular target: ECHS1, P30084
Method: as §1

EDF1, O60869 = molecular target: EDF1, O60869
Method: as §1

EEF1A2, Q05639 = molecular target: EEF1A2, Q05639
Method: as §1

EEFSEC, P57772 = molecular target: EEFSEC, P57772
Method: as §1

EHHADH, Q08426 = molecular target: EHHADH, Q08426
Method: as §1

EIF1, P41567 = molecular target: EIF1, P41567
Method: as §1

EMG1, Q92979 = molecular target: EMG1, Q92979
Method: as §1

FAM136A, Q96C01 = molecular target: FAM136A, Q96C01
Method: as §1

FKBP2, P26885 = molecular target: FKBP2, P26885
Method: as §1

FKBP3, Q00688 = molecular target: FKBP3, Q00688
Method: as §1

GABARAPL2, P60520 = molecular target: GABARAPL2, P60520
Method: as §1

H1F0, P07305 = molecular target: H1F0, P07305
Method: as §1

H1FX, Q92522 = molecular target: H1FX, Q92522
Method: as §1

HIST1H1C, P16403 = molecular target: HIST1H1C, P16403
Method: as §1

HIST1H1D, P16402 = molecular target: HIST1H1D, P16402
Method: as §1

HMGA1, P17096 = molecular target: HMGA1, P17096
Method: as §1

HMGB1, P09429 = molecular target: HMGB1, P09429
Method: as §1

HMGB2, P26583 = molecular target: HMGB2, P26583
Method: as §1

HMGB3, O15347 = molecular target: HMGB3, O15347
Method: as §1

HMGN1, P05114 = molecular target: HMGN1, P05114
Method: as §1

HMGN4, O00479 = molecular target: HMGN4, O00479
Method: as §1

HNRNPA1, P09651 = molecular target: HNRNPA1, P09651
Method: as §1

HNRNPA2B1, P22626 = molecular target: HNRNPA2B1, P22626
Method: as §1

HP1BP3, Q5SSJ5 = molecular target: HP1BP3, Q5SSJ5
Method: as §1

IBA57, Q5T440 = molecular target: IBA57, Q5T440
Method: as §1

KHDRBS1, Q07666 = molecular target: KHDRBS1, Q07666
Method: as §1

LRRC59, Q96AG4 = molecular target: LRRC59, Q96AG4
Method: as §1

MANF, P55145 = molecular target: MANF, P55145
Method: as §1

MAP4, P27816 = molecular target: MAP4, P27816
Method: as §1

MCAT, Q8IVS2 = molecular target: MCAT, Q8IVS2
Method: as §1

MEMO1, Q9Y316 = molecular target: MEMO1, Q9Y316
Method: as §1

MORF4L2, Q15014 = molecular target: MORF4L2, Q15014
Method: as §1

MPG, P29372 = molecular target: MPG, P29372
Method: as §1

MRPS33, Q9Y291 = molecular target: MRPS33, Q9Y291
Method: as §1

MRRF, Q96E11 = molecular target: MRRF, Q96E11
Method: as §1

NAT10, Q9H0A0 = molecular target: NAT10, Q9H0A0
Method: as §1

## YWLLEGGDSEDKEDA [CRNDE]
ABCE1, P61221
  PRISMA enrichment of interactor (log2): 4.19
ACOT13, Q9NPJ3
  PRISMA enrichment of interactor (log2): 4.45
ALYREF, Q86V81
  PRISMA enrichment of interactor (log2): 4.3 ± 0.59
AP2A2, O94973
  PRISMA enrichment of interactor (log2): 4.14
AP3M1, Q9Y2T2
  PRISMA enrichment of interactor (log2): 3.78
BCKDK, O14874
  PRISMA enrichment of interactor (log2): 3.91
C11orf98, E9PRG8
  PRISMA enrichment of interactor (log2): 4.61
C19orf53, Q9UNZ5
  PRISMA enrichment of interactor (log2): 7.79
C8orf33, Q9H7E9
  PRISMA enrichment of interactor (log2): 4.22
CCDC137, Q6PK04
  PRISMA enrichment of interactor (log2): 3.98
CCDC59, Q9P031
  PRISMA enrichment of interactor (log2): 3.82
CFAP20, Q9Y6A4
  PRISMA enrichment of interactor (log2): 4.15
CHID1, Q9BWS9
  PRISMA enrichment of interactor (log2): 4.18
CHTOP, Q9Y3Y2
  PRISMA enrichment of interactor (log2): 4.13
COA7, Q96BR5
  PRISMA enrichment of interactor (log2): 3.9
CRIPT, Q9P021
  PRISMA enrichment of interactor (log2): 4.83
CSNK1A1, P48729
  PRISMA enrichment of interactor (log2): 5.75
CSNK1E, P49674
  PRISMA enrichment of interactor (log2): 5.04
CXorf56, Q9H5V9
  PRISMA enrichment of interactor (log2): 5.26
DARS2, Q6PI48
  PRISMA enrichment of interactor (log2): 3.7
DDX47, Q9H0S4
  PRISMA enrichment of interactor (log2): 4.02
DDX49, Q9Y6V7
  PRISMA enrichment of interactor (log2): 3.87
DDX6, P26196
  PRISMA enrichment of interactor (log2): 4.2
DECR1, Q16698
  PRISMA enrichment of interactor (log2): 4.27
ECHS1, P30084
  PRISMA enrichment of interactor (log2): 8.98
EDF1, O60869
  PRISMA enrichment of interactor (log2): 5.55
EEF1A2, Q05639
  PRISMA enrichment of interactor (log2): 5.57
EEFSEC, P57772
  PRISMA enrichment of interactor (log2): 3.8
EHHADH, Q08426
  PRISMA enrichment of interactor (log2): 4.32
EIF1, P41567
  PRISMA enrichment of interactor (log2): 4.57
EMG1, Q92979
  PRISMA enrichment of interactor (log2): 4.71
FAM136A, Q96C01
  PRISMA enrichment of interactor (log2): 3.62
FKBP2, P26885
  PRISMA enrichment of interactor (log2): 5.6
FKBP3, Q00688
  PRISMA enrichment of interactor (log2): 3.78
GABARAPL2, P60520
  PRISMA enrichment of interactor (log2): 4.34
H1F0, P07305
  PRISMA enrichment of interactor (log2): 3.9
H1FX, Q92522
  PRISMA enrichment of interactor (log2): 5.33
HIST1H1C, P16403
  PRISMA enrichment of interactor (log2): 5.32
HIST1H1D, P16402
  PRISMA enrichment of interactor (log2): 6.17
HMGA1, P17096
  PRISMA enrichment of interactor (log2): 4.08
HMGB1, P09429
  PRISMA enrichment of interactor (log2): 5
HMGB2, P26583
  PRISMA enrichment of interactor (log2): 6.46
HMGB3, O15347
  PRISMA enrichment of interactor (log2): 4.03
HMGN1, P05114
  PRISMA enrichment of interactor (log2): 3.9
HMGN4, O00479
  PRISMA enrichment of interactor (log2): 5.46
HNRNPA1, P09651
  PRISMA enrichment of interactor (log2): 3.65
HNRNPA2B1, P22626
  PRISMA enrichment of interactor (log2): 3.23
HP1BP3, Q5SSJ5
  PRISMA enrichment of interactor (log2): 4.11
IBA57, Q5T440
  PRISMA enrichment of interactor (log2): 4.85
KHDRBS1, Q07666
  PRISMA enrichment of interactor (log2): 5.53
LRRC59, Q96AG4
  PRISMA enrichment of interactor (log2): 4.18
MANF, P55145
  PRISMA enrichment of interactor (log2): 4.64
MAP4, P27816
  PRISMA enrichment of interactor (log2): 4.77
MCAT, Q8IVS2
  PRISMA enrichment of interactor (log2): 3.87
MEMO1, Q9Y316
  PRISMA enrichment of interactor (log2): 4.61
MORF4L2, Q15014
  PRISMA enrichment of interactor (log2): 4.97
MPG, P29372
  PRISMA enrichment of interactor (log2): 3.98
MRPS33, Q9Y291
  PRISMA enrichment of interactor (log2): 3.59
MRRF, Q96E11
  PRISMA enrichment of interactor (log2): 5.16
NAT10, Q9H0A0
  PRISMA enrichment of interactor (log2): 3.45

Reference: the supplement of paper PMC10032668
